PubChem BioAssay AID1259308 | NCATS – 2017
Screen: 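Knock-downs that increase output of a recombinant reporter protein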 (primary screen). Cell system: human HEK293 embryonic kidney cells stably expressing firefly luciferase (HEK-CMV-Luc2-Hygro). Reagent: single siRNA against human genes, 0.8 pmol siRNA per well. Duration: 72 h. Measured: 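Reporter luminescence and viable-cell signal on separate replicate plates, given as percent of non-targeting control and median/MAD z-scores, plus per-cell luciferase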. Direction: total luciferase, z-score and total luciferase, % of control: higher = more reporter protein produced. Rule for the call: 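Active when the median/MAD z-score for overall luciferase is greater than 3; a gene was taken forward for validation with new siRNAs if at least two of its three siRNAs passed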. Meaning of the calls: active = raised luciferase; inactive = no rise.
The whole screen tested about 59,000 reagents; shown is a random part of them. Over the whole deposit, about 1,510 (2.6%) are marked active. 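Calls use total luciferase alone and ignore viability, so some active siRNAs may act by altering cell number.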 A number with no mark means an inactive call. The numbers tell different reagents against one gene apart. Not all columns of the deposit are shown.

| target gene | reagent no. | total luciferase, z-score | total luciferase, % of control |
| --- | --- | --- | --- |
| BNC2 | 1 | 1.11 | 104 |
| BNC2 | 2 | -0.499 | 72 |
| BNC2 | 3 | 0.128 | 84.4 |
| BORCS8-MEF2B | 1 | -0.838 | 65.2 |
| BORCS8-MEF2B | 2 | -0.0636 | 80.6 |
| BORCS8-MEF2B | 3 | -2.74 | 27.4 |
| CD4 | 1 | 0.742 | 96.6 |
| CD4 | 2 | -0.36 | 74.7 |
| CD4 | 3 | 1.3 | 108 |
| GCNT1 | 1 | 0.158 | 85 |
| GCNT1 | 2 | 2.96 | 141 |
| GCNT1 | 3 | 0.376 | 89.4 |
| SIX6 | 1 | -0.345 | 75 |
| SIX6 | 2 | 1.51 | 112 |
| SIX6 | 3 | -0.438 | 73.2 |
| KIF26A | 1 | 0.175 | 85.4 |
| KIF26A | 2 | -1.18 | 58.3 |
| KIF26A | 3 | 0.252 | 86.9 |
| BCLAF1 | 1 | 2.81 | 138 |
| BCLAF1 | 2 | 1.11 | 104 |
| BCLAF1 | 3 | -0.839 | 65.2 |
| GARIN2 | 1 | 2.51 | 132 |
| GARIN2 | 2 | 2.55 | 133 |
| GARIN2 | 3 | -0.112 | 79.7 |
| EVPLL | 1 | -0.968 | 62.6 |
| EVPLL | 2 | 0.967 | 101 |
| EVPLL | 3 | -1.18 | 58.5 |
| PNMA3 | 1 | -1.72 | 47.7 |
| PNMA3 | 2 | 2.7 | 136 |
| PNMA3 | 3 | -0.916 | 63.7 |
| LRRD1 | 1 | -0.344 | 75 |
| LRRD1 | 2 | 0.721 | 96.2 |
| LRRD1 | 3 | 0.839 | 98.6 |
| NMU | 1 | 1.01 | 102 |
| NMU | 2 | 1.03 | 102 |
| NMU | 3 | -1.02 | 61.5 |

Entries above whose target name starts with S or s (3):
| target gene | reagent no. | total luciferase, z-score | total luciferase, % of control |
| --- | --- | --- | --- |
| SIX6 | 1 | -0.345 | 75 |
| SIX6 | 2 | 1.51 | 112 |
| SIX6 | 3 | -0.438 | 73.2 |

Next entries follow.
| target gene | reagent no. | total luciferase, z-score | total luciferase, % of control |
| --- | --- | --- | --- |
| CCL28 | 1 | 1.03 | 102 |
| CCL28 | 2 | -0.962 | 62.7 |
| CCL28 | 3 | -0.13 | 79.3 |
| DEFB130A | 1 | -0.996 | 62.1 |
| DEFB130A | 2 | -0.105 | 79.8 |
| DEFB130A | 3 | 0.691 | 95.6 |
| FCRL4 | 1 | -0.0116 | 81.7 |
| FCRL4 | 2 | -0.178 | 78.3 |
| FCRL4 | 3 | 1.26 | 107 |
| KANSL1L | 1 | 1.01 | 102 |
| KANSL1L | 2 | 0.812 | 98 |
| KANSL1L | 3 | -0.779 | 66.4 |
| SNRNP35 | 1 | 0.327 | 88.4 |
| SNRNP35 | 2 | 0.64 | 94.6 |
| SNRNP35 | 3 | -0.265 | 76.6 |
| OR51B5 | 1 | 2.08 | 123 |
| OR51B5 | 2 | 0.168 | 85.2 |
| OR51B5 | 3 | 0.24 | 86.7 |
| FAM222B | 1 | -0.366 | 74.6 |
| FAM222B | 2 | -0.804 | 65.9 |
| FAM222B | 3 | -0.352 | 74.9 |
